Measured values reported in patent publication EP1656933A1, “A medicinal composition comprising L-alanine for non-alcoholic fatty liver disease and/or non-alcoholic steatohepatitis and use therof” (Ajinomoto Co., Inc., priority 2004, dated 2006).
For at least one compound, name, drawing or mass did not settle the structure.

What was measured:
[1] = system: choline-deficient diet (hereinafter CDD) rat model; experiment: Choline-deficient diet (CDD) rat model showing NASH-like pathological change in the liver; type: in vivo, Male Wistar rats; settings: CDD mixed with drug for 4 weeks
Description: Male Wistar rats (7 weeks of age, 5 rats per group) received CDD (Dyets Co.) for 4 weeks. […] On the other hand, in the group of 5 rats received CDD mixed with 4% L-alanine for 4 weeks, one rat is normalized in liver weight (10.6g).

[2] = system: HFD-induced fatty liver rat model; experiment: High-fat diet (HFD)-induced fatty liver rat model, hepatic triglyceride contents; type: in vivo, Male GK rats; settings: HFD mixed with 0.01% pioglitazone for 6 weeks; 6 rats
Description: It has been supposed that the increase of the amount of fat intake in the last few decades is one of the causes of the recent increase of the number of patients with NASH. Therefore, the effect of L-alanine on the hepatic triglyceride contents in the high-fat diet (hereinafter HFD)-induced fatty liver rat model. Male GK rats (9 weeks of age, 6 rats per group) received HFD (containing 30% beef tallow) for 6 weeks. Triglyceride contents in the liver tissue was increased to 29.1 to 49.3 mg per gram of liver tissue, compared with those (14.1 to 24.2 mg) in the group fed with standard diet (containing 5% soy-been oil; hereinafter SD). Pioglitazone is a drug, which acts as an insulin-sensitizer for the patients with diabetes. Recent clinical pilot studies raise the possibility of clinical utility of pioglitazone for NASH. […] On the other hand, in the group of 6 rats received […] mixed with 4% L-alanine for 6 weeks, one rat is reduced in the liver triglyceride contents (19.6 mg) in the level of SD group. In addition, weight gain was reported as the main side effect in a pilot clinical study of piogritazone for NASH.

SMILES	NASH-like pathological change ([1]; 5 rats per group)	liver weight (result in words) ([1]; all of 5 rats)	macrovesicular hepatic steatosis / histological fat accumulation in the liver ([1]; histological examination, UDCA all of 5 rats, L-alanine the one rat of 5 with normalized liver weight)	fatty liver [2]
C[C@H](CCC(=O)O)[C@H]1CC[C@H]2[C@@H]3[C@@H](O)C[C@@H]4C[C@H](O)CC[C@]4(C)[C@H]3CC[C@]12C [UDCA, Ursodeoxycholic acid]	did not improve	increase of liver weight	macrovesicular hepatic steatosis	
CCc1ccc(CCOc2ccc(CC3SC(=O)NC3=O)cc2)nc1 (stereo not shown) [pioglitazone]				did not improve
